Our source for the binding values is article PMC10970676.

No constants are given. Whether binding was seen depends on the method and setting. A result given as binding can be weak or reduced; the word gives no strength.

The target of the test is NtGPX8a (Nicotiana tabacum glutathione peroxidase 8a) (N. tabacum (variety TN90)). As to the kind of experiment: two-hybrid; bait pGBKT7::NtGPX8a, prey pGADT7::Trx, co-transformed into Y2H Gold yeast; growth spotted on DDO, TDO (SD/-Leu-Trp-His) and QDO (SD/-Leu-Trp-His-Ade) plates, 30 °C, 2-3 days.

B1: AtTrxm2 (Arabidopsis thioredoxin m2, AT4G03520) (protein, UniProt Q9SEU8 1-186)
chain: MAAFTCTSRPPISLRSETRIVSSSPSASSLSSRRMFAVLPESSGLRIRLSLSPASLTSIHQPRVSRLRRAVVCEAQETTTDIQVVNDSTWDSLVLKATGPVVVDFWAPWCGPCKMIDPLVNDLAQHYTGKIKFYKLNTDESPNTPGQYGVRSIPTIMIFVGGEKKDTIIGAVPKTTLTSSLDKFLP
For the molecule B1, the binding result is listed as “binds”.

B2: AtTrxz (Arabidopsis thioredoxin z, AT3G06730) (protein, UniProt Q9M7X9 1-183)
chain: MALVQSRTFPHLNTPLSPILSSLHAPSSLFIRREIRPVAAPFSSSTAGNLPFSPLTRPRKLLCPPPRGKFVREDYLVKKLSAQELQELVKGDRKVPLIVDFYATWCGPCILMAQELEMLAVEYESNAIIVKVDTDDEYEFARDMQVRGLPTLFFISPDPSKDAIRTEGLIPLQMMHDIIDNEM
Regarding B2, the binding result was “binds”.
